# Results published in the supplement of paper PMC4962491.
# Where a name gives a salt, the structure may show the parent alone. ± gives the standard deviation of the averaged measurements. This is a selection; strong and weak results do not stand in their true shares. Most values lie within the scatter of the assay; repeated measurements hardly agree. Numbered stars: 1 amine (or outer) side, 2 acyl side, 3 side chain; on linkers, the order of the positions; unused ones are H or OH. Bridge positions count the residues as written; N and C are the ends. Square brackets hold non-standard residues; d marks the D form. Peptide text beside a SMILES is read from it. * marks the point of attachment. ξ: configuration not given here. X2 = N=C1NCCC([C@H](N[*:1])C(=O)[*:2])N1; ΔAla(Z-3-ureido) = NC(=O)N/C=C(\N)C(=O)O; ξβ3hOrn = NCCCC(N)CC(=O)*; Dap = NC[C@H](N)C(=O)O
# System: FaDu
# Assay: mitochondrial oxygen consumption rate normalised to cell number, Z score over the library; higher = higher oxygen consumption (negative = OCR reduction)
# Conditions: treatment time 24 h, assay medium: 5 mM galactose, 5 mM pyruvate, 4 mM glutamine
# Method: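 Primary screen: FaDu cells were incubated 24 h with Pharmakon 1600 / TDI oncology set compounds at 2 or 10 uM. Mitochondrial-specific OCR (basal minus 2 uM antimycin A) was measured on a Seahorse XF96 in assay medium with 5 mM galactose, 5 mM pyruvate and 4 mM glutamine, then corrected for Hoechst cell number and expressed as a Z score […]. Compounds that cut cell number by >66% were excluded. Two repeats.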
Structure (SMILES),mitochondrial oxygen consumption rate normalised (2 µM),mitochondrial oxygen consumption rate normalised (10 µM)
COc1cc(C(=O)NCc2ccc(OCCN(C)C)cc2)cc(OC)c1OC,0.576 ± 0.061,
Cc1cc(C(C)(C)C)c(O)c(C(C)(C)C)c1,-0.595 ± 0.37,
C/C(=C\c1csc(C)n1)[C@@H]1C[C@@H]2O[C@]2(C)CCC[C@H](C)[C@H](O)[C@@H](C)C(=O)C(C)(C)[C@@H](O)CC(=O)N1 [Ixabepilone],0.498 ± 0.25,
CCOc1nc2cccc(C(=O)OCc3oc(=O)oc3C)c2n1Cc1ccc(-c2ccccc2-c2noc(=O)[nH]2)cc1,-0.893 ± 0.16,
O=C(O)c1cn(C2CC2)c2cc(N3CCNCC3)c(F)cc2c1=O,0.674 ± 1.6,
CCOC(=O)COc1ccc2c(=O)cc(-c3ccccc3)oc2c1,-0.73 ± 0.13,
Cc1ccc(NC(=O)c2ccc(CN3CCN(C)CC3)cc2)cc1Nc1nccc(-c2cccnc2)n1,0.691 ± 1,
Cc1ccc(NC(=O)c2ccc(CN3CCN(C)CC3)cc2)cc1Nc1nccc(-c2cccnc2)n1 [Imatinib Mesylate],0.127 ± 0.32,
O=C(O)C(=O)O.[NH-][C@@H]1CCCC[C@H]1[NH-].[Pt+2] [Oxaliplatin],0.906 ± 0.32,
O=C(O)C(=O)O.[NH-][C@@H]1CCCC[C@H]1[NH-].[Pt+2],0.333 ± 0.048,
C[C@](N)(Cc1ccc(O)c(O)c1)C(=O)O,-0.0933 ± 0.61,
Clc1ccc(C(Cn2ccnc2)OCc2ccsc2Cl)c(Cl)c1 (stereo unspecified),0.354 ± 0.2,
C[C@H]1c2cccc(O)c2C(=O)C2=C(O)[C@]3(O)C(=O)C(C(N)=O)=C(O)[C@@H](N(C)C)[C@@H]3[C@@H](O)[C@@H]21,-0.593 ± 0.25,
O=C1/C(=C/c2cccs2)CCC/C1=C\c1cccs1,-0.106 ± 0.52,
CC(=O)NC(Cc1ccccc1)C(=O)O (stereo unspecified),0.547 ± 1.5,0.121 ± 0.33
COc1ccc(O)cc1,1.11 ± 0.24,
CCCCCCCCCCCCCCCCCCCCCCO,-0.677 ± 0.55,
NCCCC(=O)O [gamma-AMINOBUTYRIC ACID],-0.0567 ± 0.5,
CCCCCCOC(=O)NC(=N)c1ccc(NCc2nc3cc(C(=O)N(CCC(=O)OCC)c4ccccn4)ccc3n2C)cc1,0.523 ± 0.02,
CC(O)C(=O)[O-].[Na+] (stereo unspecified),1.28 ± 0.5,
CN[C@@H]1[C@@H](O[C@H]2O[C@H](CO)[C@@H](N)[C@H](O)[C@H]2O)OC2C[C@@H](N)[C@@H](O[C@H]3[C@H](O)[C@@H](O)[C@H](N)C[C@@H]3N)OC2[C@@H]1O (stereo partly specified),-0.0917 ± 0.79,
C[C@@H]1NC(=O)[C@@H](N)CNC(=O)[C@H](C2CCNC(=N)N2)NC(=O)/C(=C/NC(N)=O)NC(=O)[C@H](CNC(=O)CC(N)CCCN)NC1=O.N=C1NCC[C@H]([C@@H]2NC(=O)/C(=C/NC(N)=O)NC(=O)[C@H](CNC(=O)C[C@@H](N)CCCN)NC(=O)[C@H](CO)NC(=O)[C@@H](N)CNC2=O)N1 (H-[Dap]S[Dap](ξβ3hOrn)[ΔAla(Z-3-ureido)][X2]; lactam 1-C),-0.285 ± 0.7,

Structure (SMILES),mitochondrial oxygen consumption rate normalised (2 µM),mitochondrial oxygen consumption rate normalised (10 µM)
CC12CCC(CC1=O)C2(C)C (stereo unspecified),-0.569 ± 0.12,0.477 ± 0.051
C#Cc1cccc(Nc2ncnc3cc(OCCOC)c(OCCOC)cc23)c1 [Erlotinib HCl],0.0528 ± 0.32,
Cc1onc(-c2ccccc2Cl)c1C(=O)N[C@@H]1C(=O)N2[C@@H]1SC(C)(C)[C@@H]2C(=O)O,0.345 ± 0.35,
CN[C@@H]1[C@H](O)[C@H](NC)[C@H]2O[C@@]3(O)C(=O)C[C@@H](C)O[C@H]3O[C@@H]2[C@H]1O,-0.534 ± 0.45,
NS(=O)(=O)c1cc2c(cc1Cl)NC(C(Cl)Cl)NS2(=O)=O (stereo unspecified),0.533 ± 0.3,
OCc1cccnc1,0.453 ± 0.17,
CN1CCC[C@@H]1Cc1c[nH]c2ccc(CCS(=O)(=O)c3ccccc3)cc12,0.126 ± 0.85,
CC(C)[N+](C)(CCOC(=O)C1c2ccccc2Oc2ccccc21)C(C)C,0.497 ± 0.85,
CN(C)CCC=C1c2ccccc2COc2ccccc21,-0.927 ± 0.5,
CCC[C@@H]1C[C@@H](C(=O)N[C@@H]([C@H]2O[C@H](SC)[C@H](O)[C@@H](O)[C@H]2O)[C@H](C)Cl)N(C)C1,-0.0755 ± 1.8,
O=C(O)CCNC(=O)c1ccccc1,-0.305 ± 0.54,
O=C(N[C@H](CO)[C@H](O)c1ccc([N+](=O)[O-])cc1)C(Cl)Cl,-3.2 ± 0.058,
C[n+]1c2cc(N)ccc2cc2ccc(N)cc21,-1.61 ± 0.45,
CC1=NN(c2ccccc2)C(=O)C1,0.119 ± 0.27,
Cn1cnc2c1c(=O)[nH]c(=O)n2C,-0.181 ± 0.61,
CCOc1ccc2ccccc2c1C(=O)N[C@@H]1C(=O)N2[C@@H]1SC(C)(C)[C@@H]2C(=O)O,0.744 ± 2.1,
CC(C)(CO)C(O)C(=O)NCCCO (stereo unspecified),-0.503 ± 0.67,
CCN(CC)CCNC(=O)c1cc(Cl)c(N)cc1OC,0.496 ± 0.79,
C[n+]1cc2c3c(ccc2c2ccc4cc5c(cc4c21)OCO5)OCO3,-1.31 ± 0.22,
Clc1ccc(CSC(Cn2ccnc2)c2ccc(Cl)cc2Cl)cc1 (stereo unspecified),-0.166 ± 0.046,
Nc1ncnc2c1ncn2[C@@H]1O[C@H](CO)[C@@H](O)[C@H]1O,0.273 ± 0.33,
CC(=O)O[C@@]12CO[C@@H]1C[C@H](O)[C@@]1(C)C(=O)[C@H](O)C3=C(C)[C@@H](OC(=O)[C@H](O)[C@@H](NC(=O)OC(C)(C)C)c4ccccc4)C[C@@](O)([C@@H](OC(=O)c4ccccc4)[C@H]21)C3(C)C [Docetaxel],0.0314 ± 0.21,

Structure (SMILES),mitochondrial oxygen consumption rate normalised (2 µM),mitochondrial oxygen consumption rate normalised (10 µM)
CC(=O)O[C@@]12CO[C@@H]1C[C@H](O)[C@@]1(C)C(=O)[C@H](O)C3=C(C)[C@@H](OC(=O)[C@H](O)[C@@H](NC(=O)OC(C)(C)C)c4ccccc4)C[C@@](O)([C@@H](OC(=O)c4ccccc4)[C@H]21)C3(C)C,0.806 ± 0.26,
C=CC1=C(C)c2cc3[nH]c(cc4nc(cc5[nH]c(cc1n2)c(C)c5CCC(=O)O)C(CCC(=O)O)=C4C)c(C)c3C=C,-1.24 ± 0.029,
CN(C)CCN(Cc1ccccc1)c1ccccn1,0.451 ± 0.24,
CO[C@H]1C[C@@H]2CC[C@@H](C)[C@@](O)(O2)C(=O)C(=O)N2CCCC[C@H]2C(=O)O[C@H]([C@H](C)C[C@@H]2CC[C@@H](OCCO)[C@H](OC)C2)CC(=O)[C@H](C)/C=C(\C)[C@@H](O)[C@@H](OC)C(=O)[C@H](C)C[C@H](C)/C=C/C=C/C=C/1C,,-1.07 ± 0.18
CO[C@H]1C[C@@H]2CC[C@@H](C)[C@@](O)(O2)C(=O)C(=O)N2CCCC[C@H]2C(=O)O[C@H]([C@H](C)C[C@@H]2CC[C@@H](OCCO)[C@H](OC)C2)CC(=O)[C@H](C)/C=C(\C)[C@@H](O)[C@@H](OC)C(=O)[C@H](C)C[C@H](C)/C=C/C=C/C=C/1C [Everolimus],0.0924 ± 0.2,
CC(O)C(=O)O.N (stereo unspecified),0.473 ± 1.2,0.0377 ± 0.64
Nc1ccn([C@@H]2O[C@H](CO)[C@@H](O)C2(F)F)c(=O)n1 [Gemcitabine HCl],1.44 ± 1.1,
CN1C(=O)CC(c2ccccc2)C1=O (stereo unspecified),-0.0825 ± 0.35,
O=C(O)CC(O)(CC(=O)O)C(=O)O,0.655 ± 0.15,
COc1cc(O)c(C(=O)c2ccccc2)cc1S(=O)(=O)O,-0.539 ± 0.37,
CCCCCCCCCC(=O)N[C@@H](Cc1c[nH]c2ccccc12)C(=O)N[C@@H](CC(N)=O)C(=O)N[C@@H](CC(=O)O)C(=O)N[C@@H]1C(=O)NCC(=O)N[C@@H](CCCN)C(=O)N[C@@H](CC(=O)O)C(=O)N[C@H](C)C(=O)N[C@@H](CC(=O)O)C(=O)NCC(=O)N[C@H](CO)C(=O)N[C@@H]([C@H](C)CC(=O)O)C(=O)N[C@@H](CC(=O)c2ccccc2N)C(=O)O[C@@H]1C [DAPTOMYCIN (5 millimolar/DMSO)],1.41 ± 0.085,
N=C(N)NC(=O)Cc1c(Cl)cccc1Cl,0.199 ± 0.068,
N[C@@H](Cc1cc(I)c(Oc2cc(I)c(O)c(I)c2)c(I)c1)C(=O)O,0.754 ± 1.2,
CN(C)CC/C=C1/c2ccccc2Sc2ccc(Cl)cc21,0.0476 ± 0.38,
CC(=O)[C@H]1CC[C@H]2[C@@H]3CCC4=CC(=O)CC[C@]4(C)[C@H]3CC[C@]12C,-1.32 ± 0.84,
CN(C)CCOC(c1ccccc1)c1ccccc1,-0.511 ± 0.6,
COc1ccc2[nH]c([S+]([O-])Cc3ncc(C)c(OC)c3C)nc2n1 (stereo unspecified),-0.907 ± 0.5,
O=C(O)CCCCC(=O)O,0.708 ± 0.02,
CCN(CC)C(=O)c1cccnc1,-0.643 ± 0.38,-0.362 ± 0.74
CCN(CC)C(=O)c1cccc(C)c1,-0.787 ± 0.48,
CCCN(CCC)S(=O)(=O)c1ccc(C(=O)O)cc1,0.557 ± 0.71,
C[C@]12CC[C@@H]3c4ccc(O)cc4CC[C@H]3[C@@H]1CC[C@@H]2O,-0.383 ± 0.83,

Structure (SMILES),mitochondrial oxygen consumption rate normalised (2 µM),mitochondrial oxygen consumption rate normalised (10 µM)
Cc1ncc(CO)c(CO)c1O,-0.357 ± 0.28,
CC1(C)[C@H](C(=O)O)N2C(=O)C[C@H]2S1(=O)=O,0.232 ± 1.1,
CCC1(c2ccccc2)NC(=O)N(C)C1=O (stereo unspecified),-0.348 ± 0.29,
N[C@@H](CCC(=O)N[C@@H](CS)C(=O)NCC(=O)O)C(=O)O,-0.407 ± 0.47,
CC1=C(C(=O)O)N2C(=O)[C@@H](NC(=O)[C@H](N)C3=CCC=CC3)[C@H]2SC1,1.38 ± 0.46,
COc1cc(C(=O)NCCCCCC(=O)O)cc(OC)c1OC,0.791 ± 0.3,
CCc1c(C)[nH]c2c1C(=O)C(CN1CCOCC1)CC2 (stereo unspecified),1.29 ± 0.028,
CC1=C(/C=C/C(C)=C/C=C/C(C)=C/C(=O)O)C(C)(C)CCC1,-0.4 ± 0.61,
CC1=C(/C=C/C(C)=C/C=C/C(C)=C/C(=O)O)C(C)(C)CCC1 [Tretinoin],0.491 ± 0.14,
NC[C@@H]1CC[C@@H](N)[C@@H](O[C@H]2[C@H](O)[C@@H](O[C@H]3O[C@H](CO)[C@@H](O)[C@H](N)[C@H]3O)[C@H](N)C[C@@H]2N)O1,0.286 ± 0.12,
N=C(N)NS(=O)(=O)c1ccc(N)cc1,-0.223 ± 0.73,
CC(=O)Oc1ccccc1C(=O)O,-0.361 ± 1.2,0.27 ± 0.45
Clc1ccc(Cn2c(CN3CCCC3)nc3ccccc32)cc1,0.144 ± 0.68,
COc1cc2nc(N(C)CCCNC(=O)C3CCCO3)nc(N)c2cc1OC (stereo unspecified),-0.277 ± 0.29,
CCCCCCCCCCCCCCCC(=O)OC[C@@H](NC(=O)C(Cl)Cl)[C@H](O)c1ccc([N+](=O)[O-])cc1,-2.81 ± 0.43,
N[C@@H]1CONC1=O,0.0807 ± 0.93,
O=C(O)COCCN1CCN(C(c2ccccc2)c2ccc(Cl)cc2)CC1 (stereo unspecified),0.69 ± 0.87,
CCCCC(CC)CCC(CC(C)C)OS(=O)(=O)O (stereo unspecified),0.429 ± 0.41,0.745 ± 1.4
Clc1ccc(CO/N=C(\Cn2ccnc2)c2ccc(Cl)cc2Cl)c(Cl)c1,-0.413 ± 1.3,

# Taken from the results shown (3 entries):
Structure (SMILES),mitochondrial oxygen consumption rate normalised (2 µM),mitochondrial oxygen consumption rate normalised (10 µM)
CCC1(c2ccccc2)NC(=O)N(C)C1=O (stereo unspecified),-0.348 ± 0.29,
N[C@@H](CCC(=O)N[C@@H](CS)C(=O)NCC(=O)O)C(=O)O,-0.407 ± 0.47,
CC1=C(C(=O)O)N2C(=O)[C@@H](NC(=O)[C@H](N)C3=CCC=CC3)[C@H]2SC1,1.38 ± 0.46,
